Patent US10947575B2, “Rapid antimicrobial susceptibility test, based on an analysis of changes in morphology and growth pattern of a microbial cell under different concentrations of various antimicrobial agents, and automated cell image analysis system therefor” (priority 2014, dated 2021)
“Also recorded” adds a separate entry of the source. For at least one compound, name, drawing or mass did not settle the structure.

Columns and labels:
S. aureus ATCC 29213 [1] = test: AST by analysis of changes in morphology and growth pattern of a microbial cell (MAC 2.0 chip imaging); type: cell-based; conditions: RRG = relatively rapid growth, RSG = relatively slow growth
Source text: (§1) Four reference strains (E. coli ATCC 25922, S. aureus ATCC 29213, P. aeruginosa ATCC 27853, and E. faecalis ATCC 29212) were used as objective strains, in accordance with Clinical and Laboratory Standards Institute (CLSI) guidelines. […] The bacterial cell in MAC 2.0TM (QuantaMatrix) was monitored through a S Plan Fluor ELWD 60X (NA 1.49) lens of an inverted optical microscope (Eclipse Ti-Nikon, IX71-Olympus) provided in a heating system, and then, an electron multiplying CCD camera (QuantEM:512SC Photometrics for Eclipse Ti) was used to obtain images of a region where is adjacent to an interface between the agarose well of MAC 2.0TM and the antimicrobial agents well, over time.

S. aureus ATCC 29213 [2] = conditions: time to result 16~20 hr; cited from earlier work
E. coli ATCC 25922 [3] = test: AST by analysis of changes in morphology and growth pattern of a microbial cell (MAC 2.0 chip imaging); type: cell-based; conditions: Normal / Filament / Swelling
Source text: as §1

P. aeruginosa ATCC 27853 [4] = test: as above; type: cell-based; conditions: Normal / Filament / Swelling
Source text: as §1

P. aeruginosa ATCC 27853 [5] = conditions: time to result 16~20 hr; cited from earlier work
E. coli ATCC 25922 [6] = conditions: time to result 16~20 hr; cited from earlier work
E. faecalis ATCC 29212 [7] = test: AST by analysis of changes in morphology and growth pattern of a microbial cell (MAC 2.0 chip imaging); type: cell-based; conditions: RRG = relatively rapid growth, RSG = relatively slow growth
Source text: as §1

E. faecalis ATCC 29212 [8] = conditions: time to result 16~20 hr; cited from earlier work

Structure (SMILES) | Criteria (change in morphology and growth pattern) (S. aureus ATCC 29213 [1]) | CLSI QC range (MIC) (S. aureus ATCC 29213 [2]) | Criteria (change in morphology and growth pattern) (E. coli ATCC 25922 [3]) | Criteria (change in morphology and growth pattern) (P. aeruginosa ATCC 27853 [4]) | CLSI QC range (MIC) (P. aeruginosa ATCC 27853 [5]) | CLSI QC range (MIC) (E. coli ATCC 25922 [6]) | Criteria (change in morphology and growth pattern) (E. faecalis ATCC 29212 [7]) | Criteria (change in morphology and growth pattern) (E. faecalis ATCC 29212 [7]; listed as levofloxacin) | CLSI QC range (MIC) (E. faecalis ATCC 29212 [8])
CCC[C@@H]1C[C@@H](C(=O)N[C@@H]([C@H]2O[C@H](SC)[C@H](O)[C@@H](O)[C@H]2O)[C@H](C)Cl)N(C)C1 [Clindamycin] | Relatively slow growth (RSG) and RSG | 0.06~0.25 | – | – | – | – | – | – | –
C[C@@H](O)[C@H]1C(=O)N2C(C(=O)O)=C(SCCN=CN)C[C@H]12 [Imipenem] | Normal | 0.015~0.06 | Cell expansion; also recorded: Swelling | Cell expansion; also recorded: Swelling | 1~4 | 0.06~0.25 | – | – | –
C[C@H]1COc2c(N3CCN(C)CC3)c(F)cc3c(=O)c(C(=O)O)cn1c23 [Levofloxacin] | RRG | 0.06~0.5 | – | – | – | – | RRG | Relatively rapid growth (RRG) | 0.25~2
CN(C)[C@@H]1C(O)=C(C(N)=O)C(=O)[C@@]2(O)C(O)=C3C(=O)c4c(O)cccc4[C@@](C)(O)[C@H]3C[C@@H]12 [Tetracycline] | Normal | 0.12~1 | Normal | – | – | 0.5~2 | RSG | – | 8~32
